Source: the supplement of paper PMC4604168 (melanoma cell lines)
Some of the results follow. Single values are uncertain, as repeats are few or missing.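 Cells were imaged in 1,536-well plates, and nuclei stained with an antibody against cleaved PARP were counted against all DNA-stained nuclei to give the apoptosis fraction. Screening doses were chosen to leave most cells alive, and resting and induced cleaved-PARP levels differ strongly between cell lines.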

What was measured:
Assay in all cases: cleaved PARP positive nuclei fraction relative to DMSO control; melanoma cells; higher = more apoptosis
Details in all cases: library dose: low library concentration; 72 h
501Mel = system: 501Mel
A101D = system: A101D
A2058 = system: A2058
A375 = system: A375
C32 = system: C32
CBRC013 = system: CBRC013 (line from a melanoma biopsy)
CBRC014 = system: CBRC014 (line from a melanoma biopsy)
CBRC016 = system: CBRC016 (line from a melanoma biopsy)
CBRC017 = system: CBRC017 (line from a melanoma biopsy)

SMILES	cleaved PARP positive nuclei fraction (501Mel)	cleaved PARP positive nuclei fraction (A101D)	cleaved PARP positive nuclei fraction (A2058)	cleaved PARP positive nuclei fraction (A375)	cleaved PARP positive nuclei fraction (C32)	cleaved PARP positive nuclei fraction (CBRC013)	cleaved PARP positive nuclei fraction (CBRC014)	cleaved PARP positive nuclei fraction (CBRC016)	cleaved PARP positive nuclei fraction (CBRC017)
Cc1ccc(NC(=O)c2cccc(N(C)C)c2)cc1NC(=O)c1ccc(O)cc1 + Cn1cc(/C=C2\C(=O)Nc3cccnc32)c2ccccc21 [GW441756] (first compound 2 µM, partner dose 0.4 µM)	82.7%	169%	78.2%	127%	34.8%	76%	137%	108%	116%
C=CCn1c(=O)c2cnc(Nc3ccc(N4CCN(C)CC4)cc3)nc2n1-c1cccc(C(C)(C)O)n1 + O=C1NC(=O)/C(=C/c2ccc(-c3ccc(F)cc3O)o2)S1 [AS252424] (first compound 0.02 µM, partner dose 1 µM)	71.4%	176%	43.7%	208%	94.7%	534%	113%	118%	78.2%
COc1cc(Nc2ncc(F)c(Nc3ccc4c(n3)NC(=O)C(C)(C)O4)n2)cc(OC)c1OC [Tamatinib] + O=C(O)C(=O)Nc1sc2c(c1C(=O)O)CCNC2 [TCS401] (first compound 0.4 µM, partner dose 1.66667 µM)	44.2%	69.6%	96%	125%	49.2%	50.7%	97.8%	86.8%	121%
C[C@@H]1CCN(C(=O)CC#N)C[C@@H]1N(C)c1ncnc2[nH]ccc12 + O=c1cc(-c2cccc3c2Sc2ccccc2S3)oc(N2CCOCC2)c1 [KU55933] (first compound 1 µM, partner dose 1 µM)	193%	109%	46.4%	65.9%	230%	226%	96%	109%	99.1%
Cc1nc(Nc2ncc(C(=O)Nc3c(C)cccc3Cl)s2)cc(N2CCN(CCO)CC2)n1 [dasatanib] + O=C1NC(=O)/C(=C/c2ccc(-c3ccc(F)cc3O)o2)S1 [AS252424] (first compound 0.004 µM, partner dose 1 µM)	95.1%	152%	317%	115%	302%	126%	110%	61.3%	82.9%
Nc1cccc2c1CN(C1CCC(=O)NC1=O)C2=O (stereo not given) [lenalidomide] + CCc1ccc(CCOc2ccc(CC3SC(=O)NC3=O)cc2)nc1 [pioglitazone] (first compound 1 µM, partner dose 2 µM)	86.1%	219%	51.3%	38.1%	187%	135%	85%	202%	91.9%
COc1cc(Nc2ncc(F)c(Nc3ccc4c(n3)NC(=O)C(C)(C)O4)n2)cc(OC)c1OC [Tamatinib] + O=S(=O)(c1ccccc1)N(CC(F)(F)F)c1ccc(C(O)(C(F)(F)F)C(F)(F)F)cc1 [T0901317] (first compound 0.4 µM, partner dose 1.4 µM)	19%	149%	157%	163%	35.1%	128%	102%	43.4%	89.9%
CC1(C)NC(=O)N(c2ccc([N+](=O)[O-])c(C(F)(F)F)c2)C1=O [nilutamide] + Cn1cc(/C=C2\C(=O)Nc3cccnc32)c2ccccc21 [GW441756] (first compound 1 µM, partner dose 0.4 µM)	74.5%	159%	79.5%	85.4%	104%	259%	198%	163%	64.4%
Nc1cccc2c1CN(C1CCC(=O)NC1=O)C2=O (stereo not given) [lenalidomide] + CCCCCCCCCCCC1=C(O)C(=O)C=C(O)C1=O [Embelin] (first compound 1 µM, partner dose 1.2 µM)	63.5%	42.4%	76.6%	140%	74.9%	43.5%	77.9%	69.6%	87.8%
C#Cc1cccc(Nc2ncnc3cc(OCCOC)c(OCCOC)cc23)c1 [erlotinib] + Cn1cc(/C=C2\C(=O)Nc3cccnc32)c2ccccc21 [GW441756] (first compound 0.8 µM, partner dose 0.4 µM)	98.5%	181%	135%	136%	41.7%	145%	95.4%	49.6%	94.6%
NC(=O)Nc1cc(-c2cccc(F)c2)sc1C(=O)N[C@H]1CCCNC1 + COc1cc2ncnc(Nc3ccc(Oc4ccccc4)cc3)c2cc1OC [SrcI1] (first compound 0.02 µM, partner dose 2 µM)	231%	103%	98%	510%	179%	89.9%	197%	123%	76.8%
Cc1ccc(NC(=O)c2cccc(N(C)C)c2)cc1NC(=O)c1ccc(O)cc1 + O=S(=O)(c1ccccc1)N(CC(F)(F)F)c1ccc(C(O)(C(F)(F)F)C(F)(F)F)cc1 [T0901317] (first compound 2 µM, partner dose 1.4 µM)	98.4%	53.6%	120%	98.9%	129%	302%	124%	34.5%	103%
CC(C)(C)c1cnc(CSc2cnc(NC(=O)C3CCNCC3)s2)o1 + N#Cc1c(O)c2c(-c3ccc(-c4ccccc4O)cc3)csc2[nH]c1=O [A769662] (first compound 0.01 µM, partner dose 2 µM)	34.1%	38%	59.2%	35.7%	106%	72.7%	110%	123%	78.5%
CO[C@@H]1[C@H](N(C)C(=O)c2ccccc2)C[C@H]2O[C@]1(C)n1c3ccccc3c3c4c(c5c6ccccc6n2c5c31)C(=O)NC4 [Midostaurin] + COc1cc2ncnc(Nc3ccc(Oc4ccccc4)cc3)c2cc1OC [SrcI1] (first compound 0.08 µM, partner dose 2 µM)	97.9%	251%	155%	110%	68.7%	79.2%	110%	67%	103%
Cn1cncc1[C@@](N)(c1ccc(Cl)cc1)c1ccc2c(c1)c(-c1cccc(Cl)c1)cc(=O)n2C [tipifarnib] + CCCCCCCCCCCC1=C(O)C(=O)C=C(O)C1=O [Embelin] (first compound 0.01 µM, partner dose 1.2 µM)	87.9%	114%	74%	142%	44.2%	55%	95.1%	99.9%	87.6%
Cn1nnc2c(C(N)=O)ncn2c1=O [temozolomide] + COC(=O)c1sccc1S(=O)(=O)Nc1ccc(Nc2ccccc2)cc1OC [GSK0660] (first compound 2 µM, partner dose 1 µM)	65%	75.4%	53.2%	70.2%	82.3%	40%	146%	90.5%	216%
O=C(Nc1cccc(Cl)c1)Nc1ncc(CCNc2ncnc3ccsc23)s1 + COc1cc2ncnc(Nc3ccc(Oc4ccccc4)cc3)c2cc1OC [SrcI1] (first compound 0.0008 µM, partner dose 2 µM)	81%	334%	43.6%	124%	86.4%	46%	90.8%	89.5%	163%
Cc1ccc(NC(=O)c2cccc(N(C)C)c2)cc1NC(=O)c1ccc(O)cc1 + COc1ccc2c(c1)CCC1C2CCC2(C)C(NCCCCCCN3C(=O)C=CC3=O)CCC12 [U73122] (first compound 2 µM, partner dose 0.4 µM)	84.3%	75.8%	32%	199%	72.2%	35.4%	115%	17.8%	114%
Cc1ccc(NC(=O)c2cccc(N(C)C)c2)cc1NC(=O)c1ccc(O)cc1 + COc1ccc(COc2ccc(Cc3cnc(N)nc3N)cc2OC)cc1 [GW2580] (first compound 2 µM, partner dose 1 µM)	89.7%	160%	38.9%	98.3%	26.1%	142%	110%	61.5%	99.1%
C[C@]1(c2nc3c(C(N)=O)cccc3[nH]2)CCCN1 [Veliparib] + Cc1cc([N+](=O)[O-])ccc1NS(=O)(=O)c1cc(Cl)ccc1Cl [FH535] (first compound 1.4 µM, partner dose 1 µM)	152%	72.7%	158%	182%	114%	103%	162%	951%	432%
CC1(C)NC(=O)N(c2ccc([N+](=O)[O-])c(C(F)(F)F)c2)C1=O [nilutamide] + O=c1cc(-c2cccc3c2Sc2ccccc2S3)oc(N2CCOCC2)c1 [KU55933] (first compound 1 µM, partner dose 1 µM)	109%	32.4%	35%	124%	69.5%	127%	78.3%	101%	75.9%
NC(=O)Nc1cc(-c2cccc(F)c2)sc1C(=O)N[C@H]1CCCNC1 + O=C(Nc1ccccc1)c1cc([N+](=O)[O-])ccc1Cl [GW9662] (first compound 0.02 µM, partner dose 2 µM)	50.3%	58.6%	72.8%	76.7%	103%	351%	98.6%	65.9%	102%
OCCn1cc(-c2cnc3nnn(Cc4ccc5ncccc5c4)c3n2)cn1 + O=c1cc(-c2cccc3c2Sc2ccccc2S3)oc(N2CCOCC2)c1 [KU55933] (first compound 1 µM, partner dose 1 µM)	101%	220%	97.9%	34.5%	79.8%	34.8%	95.8%	57%	208%
CC1(C)NC(=O)N(c2ccc([N+](=O)[O-])c(C(F)(F)F)c2)C1=O [nilutamide] + Oc1nc(-c2ccc(C(F)(F)F)cc2)nc2c1CSCC2 [XAV939] (first compound 1 µM, partner dose 2 µM)	178%	109%	63.2%	112%	30.9%	103%	104%	35.2%	78.5%
CC(C)(C)c1cnc(CSc2cnc(NC(=O)C3CCNCC3)s2)o1 + O=C1NC(=O)/C(=C/c2ccc(-c3ccc(F)cc3O)o2)S1 [AS252424] (first compound 0.01 µM, partner dose 1 µM)	40.7%	146%	64.2%	113%	177%	102%	84.5%	55.6%	74.6%

Full records, quoted from the list. Values in the order: cleaved PARP positive nuclei fraction (501Mel) | cleaved PARP positive nuclei fraction (A101D) | cleaved PARP positive nuclei fraction (A2058) | cleaved PARP positive nuclei fraction (A375) | cleaved PARP positive nuclei fraction (C32) | cleaved PARP positive nuclei fraction (CBRC013) | cleaved PARP positive nuclei fraction (CBRC014) | cleaved PARP positive nuclei fraction (CBRC016) | cleaved PARP positive nuclei fraction (CBRC017)
NC(=O)Nc1cc(-c2cccc(F)c2)sc1C(=O)N[C@H]1CCCNC1 + COc1cc2ncnc(Nc3ccc(Oc4ccccc4)cc3)c2cc1OC [SrcI1] (first compound 0.02 µM, partner dose 2 µM) is entered as 231% | 103% | 98% | 510% | 179% | 89.9% | 197% | 123% | 76.8%
CC1(C)NC(=O)N(c2ccc([N+](=O)[O-])c(C(F)(F)F)c2)C1=O [nilutamide] + O=c1cc(-c2cccc3c2Sc2ccccc2S3)oc(N2CCOCC2)c1 [KU55933] (first compound 1 µM, partner dose 1 µM) is entered as 109% | 32.4% | 35% | 124% | 69.5% | 127% | 78.3% | 101% | 75.9%
